Measurements published in patent US20220211728A1, “ALKYL-TPP COMPOUNDS FOR MITOCHONDRIA TARGETING AND ANTI-CANCER TREATMENTS” (LUNELLA BIOTECH, INC., priority 2019, published 2022).
For at least one compound, name, drawing or mass did not settle the structure.

Experiments:
[1] = test system: MCF-7 breast cancer cells; test: mammosphere formation assay (CSC propagation) in MCF-7 cells; format: cell-based, human
Experimental: The mammosphere assay was performed as follows. A single cell suspension of MCF-7 or MDA-MB-231 cells was prepared using enzymatic (1× Trypsin-EDTA, Sigma Aldrich), and manual disaggregation (25 gauge needle). Cells were then plated at a density of 500 cells/cm^2 in mammosphere medium (DMEM-F12/B27/20-ng/ml EGF/PenStrep) in nonadherent conditions, in culture dishes coated with (2-hydroxyethylmethacrylate) (poly-HEMA, Sigma Aldrich), in the presence of treatments, were required. Cells were grown for 5 days and maintained in a humidified incubator at 37° C. at an atmospheric pressure in 5% (v/v) carbon dioxide/air. After 5 days for culture, spheres >50 μm were counted using an eye piece graticule, and the percentage of cells plated which formed spheres was calculated and is referred to as percentage mammosphere formation. Mammosphere assays were performed in triplicate and repeated three times independently.

[2] = test system: stem markers CD44 and ALDH; settings: early breast cancer patients, 14 days pre-operative administration, compared to controls; cited from earlier work

For `C[C@H]1c2cccc(O)c2C(=O)C2=C(O)[C@]3(O)C(=O)C(C(N)=O)=C(O)[C@@H](N(C)C)[C@@H]3[C@@H](O)[C@@H]21` [Doxycycline], the “efficacy of d-TPP on CSC activity” value ([1]; Doxycycline 10 μM with d-TPP 100 nM) is listed as “double the efficacy”, the “efficacy of d-TPP on CSC activity” value ([1]; Doxycycline 30 μM with d-TPP 100 nM) is listed as “potentiated” and the “stem markers CD44 and ALDH, post-operative vs pre-operative breast tumor specimens” value [2] is listed as “selective reduction”.
